Some results were stated once for a whole list of compounds, not compound by compound.
system: powdery mildew fungi (Sphaerotheca fuliginea; QoI resistant strain, cytochrome b glycine 143 mutated to alanine); type: in vivo; conditions: 200 ppm foliar spray; cucumber cv SAGAMIHANJIRO; observed after 8 days

| SMILES | lesion area compared to the lesion area in an untreated cucumber [%] |
| --- | --- |
| CCC(=NN=C(C)c1ccc2c(c1)CCC2)OCc1c(C)cccc1-n1nnn(C)c1=O [D-11] | ≤ 30 |
| CCC(=NN=C1CCc2cc(OC)ccc21)OCc1c(C)cccc1-n1nnn(C)c1=O [E-7] | ≤ 30 |
| C=C=Cn1ccc(C(C)=NN=C(CC)OCc2c(C)cccc2-n2nnn(C)c2=O)n1 [D-29] | ≤ 30 |
| CCC(=NN=C(C)c1ccc2scnc2c1)OCc1c(C)cccc1-n1nnn(C)c1=O [D-3] | ≤ 30 |
| CCC(=NN=C(C)c1c(C)nn(C)c1Cl)OCc1c(C)cccc1-n1nnn(C)c1=O [D-1] | ≤ 30 |
| CCC(=NN=C1CCc2cccc(F)c21)OCc1c(C)cccc1-n1nnn(C)c1=O [E-5] | ≤ 30 |
| CCC(=NN=C(C)c1cnc2ccccc2n1)OCc1c(C)cccc1-n1nnn(C)c1=O [D-4] | ≤ 30 |
| CCC(=NN=C(C)c1cccc2c1CCC2)OCc1c(C)cccc1-n1nnn(C)c1=O [D-10] | ≤ 30 |
| CCC(=NN=C(C)C(C)=NOCc1ccc(OC)cc1)OCc1c(C)cccc1-n1nnn(C)c1=O [C-12] | ≤ 30 |
| CCC(=NN=C(C)c1cnn(C)c1)OCc1c(C)cccc1-n1nnn(C)c1=O [1-9] | ≤ 30 |
| CCC(=NN=C1CCSc2ccccc21)OCc1c(C)cccc1-n1nnn(C)c1=O [E-28] | ≤ 30 |
| CCC(=NN=C(C)c1ccc2c(c1)CCO2)OCc1c(C)cccc1-n1nnn(C)c1=O [D-2] | ≤ 30 |
| CCC(=NN=C1CCOc2ccccc21)OCc1c(C2CC2)cccc1-n1nnn(C)c1=O [E-14] | ≤ 30 |
| CC#CCON=C(C)C(C)=NN=C(CC)OCc1c(C)cccc1-n1nnn(C)c1=O [C-6] | ≤ 30 |
| CCC(=NN=C1CCc2ccccc21)OCc1c(C)cccc1-n1nnn(C)c1=O [E-1] | ≤ 30 |
| CCC(=NN=C(C)c1ccc2c(ccn2C)c1)OCc1c(C)cccc1-n1nnn(C)c1=O [D-7] | ≤ 30 |
| CCC(=NN=C(C)C(C)=NOCCOC)OCc1c(C)cccc1-n1nnn(C)c1=O [C-14] | ≤ 30 |
| CCC(=NN=C(C)c1ccc2c(c1)OCO2)OCc1c(C)cccc1-n1nnn(C)c1=O [D-8] | ≤ 30 |
| CCC(=NN=C(C)C(C)=NOCc1ccccc1OC)OCc1c(C)cccc1-n1nnn(C)c1=O [C-9] | ≤ 30 |
| CCC(=NN=C(C)C(C)=NOC(C)C)OCc1c(C)cccc1-n1nnn(C)c1=O [A-3] | ≤ 30 |
| CCC(=NN=C(C)C(C)=NOC)OCc1c(C)cccc1-n1nnn(C)c1=O [1-10] | ≤ 30 |
| CCC(=NN=C1CCS(=O)(=O)c2ccccc21)OCc1c(C)cccc1-n1nnn(C)c1=O [E-19] | ≤ 30 |
| CCC(=NN=C(C)c1ccn(C)n1)OCc1c(C)cccc1-n1nnn(C)c1=O [D-19] | ≤ 30 |

same assay, conditions: 500 ppm foliar spray; cucumber cv SAGAMIHANJIRO; observed after 8 days

| SMILES | lesion area compared to the lesion area in an untreated cucumber [%] |
| --- | --- |
| CCC(=NN=C(C)c1ccc2scnc2c1)OCc1c(C)cccc1-n1nnn(C)c1=O [D-3] | ≤ 30 |
| CCC(=NN=C(C)c1cccc2c1OC(F)(F)O2)OCc1c(C)cccc1-n1nnn(C)c1=O [D-9] | ≤ 30 |
| CSC(=Nc1ccc(F)cc1)SCc1c(C)cccc1-n1nnn(C)c1=O [4-6] | ≤ 30 |
| CCC(=NN=C(C)c1c(C)nn(C)c1Cl)OCc1c(C)cccc1-n1nnn(C)c1=O [D-1] | ≤ 30 |
| CSC(=NCCCc1ccccc1)SCc1c(C)cccc1-n1nnn(C)c1=O [3-28] | ≤ 30 |
| CCC(=NN=C1CCc2cccc(F)c21)OCc1c(C)cccc1-n1nnn(C)c1=O [E-5] | ≤ 30 |
| CCC(=NN=C(C)c1cnc2ccccc2n1)OCc1c(C)cccc1-n1nnn(C)c1=O [D-4] | ≤ 30 |
| CCC(=NN=C1COc2ccccc21)OCc1c(C)cccc1-n1nnn(C)c1=O [E-10] | ≤ 30 |
| CCC(=NN=C(C)C(C)=NOCc1ccc(OC)cc1)OCc1c(C)cccc1-n1nnn(C)c1=O [C-12] | ≤ 30 |
| CCC(=NN=C1CCSc2ccccc21)OCc1c(C)cccc1-n1nnn(C)c1=O [E-28] | ≤ 30 |
| CCC(=NN=C(C)c1ccc2c(c1)CCO2)OCc1c(C)cccc1-n1nnn(C)c1=O [D-2] | ≤ 30 |
| CCC(=NN=C1CCOc2ccccc21)OCc1c(C2CC2)cccc1-n1nnn(C)c1=O [E-14] | ≤ 30 |
| CSC(=Nc1ccc(C(F)(F)F)cc1)SCc1c(C)cccc1-n1nnn(C)c1=O [4-2] | ≤ 30 |
| CC#CCON=C(C)C(C)=NN=C(CC)OCc1c(C)cccc1-n1nnn(C)c1=O [C-6] | ≤ 30 |
| CCC(=NN=C(C)c1ccc2c(ccn2C)c1)OCc1c(C)cccc1-n1nnn(C)c1=O [D-7] | ≤ 30 |
| CCC(=NN=C(C)C(C)=NOCCOC)OCc1c(C)cccc1-n1nnn(C)c1=O [C-14] | ≤ 30 |
| CCC(=NN=C(C)c1ccc2c(c1)OCO2)OCc1c(C)cccc1-n1nnn(C)c1=O [D-8] | ≤ 30 |
| Cc1cccc(-n2nnn(C)c2=O)c1C=NOC(C)c1cccc(C(F)(F)F)c1 (centres unmarked) [6-2] | ≤ 30 |
| CCC(=NN=C(C)C(C)=NOCc1ccccc1OC)OCc1c(C)cccc1-n1nnn(C)c1=O [C-9] | ≤ 30 |
| CCC(=NN=C(C)C(C)=NOC(C)C)OCc1c(C)cccc1-n1nnn(C)c1=O [A-3] | ≤ 30 |
| CCC(=NN=C(C)C(C)=NOC)OCc1c(C)cccc1-n1nnn(C)c1=O [1-10] | ≤ 30 |
| CCC(=NN=C1CCS(=O)(=O)c2ccccc21)OCc1c(C)cccc1-n1nnn(C)c1=O [E-19] | ≤ 30 |
| CCC(=NN=C(C)C(C)=NOCC#N)OCc1c(C)cccc1-n1nnn(C)c1=O [C-13] | ≤ 30 |
| CCC(=NN=C(C)c1ccn(C)n1)OCc1c(C)cccc1-n1nnn(C)c1=O [D-19] | ≤ 30 |
